Binding data for one substance are collected here from publication doi:10.1101/2025.01.21.633742.

No constants are given. Whether binding was seen depends on the method and setting. Binding seen in cells or lysates may run through a third protein. Some results given as binding are weak or reduced against the parent protein; the word gives no strength.

The experiment deals with hexahistidine-tagged PSII core antenna protein CP43 (Synechococcus elongatus PCC 7942) (UniProt P11004). Kind of experiment: pull-down + cross-linking.

On to “PSII reaction center D2 protein (from UniProt P11005 1-352)”, for which the binding result is listed as “binds”.
